# Data as given in PubChem BioAssay AID1159578 (Peter MacCallum Cancer Centre, 2015).
# Assay: 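Genome-wide hunt for genes controlling movement of lymphatic endothelial cells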 (primary screen)
# Cells: human lymphatic endothelial cells
# Reagent: siRNA pool against human genes, 40 nM
# Duration: 48 h after transfection
# Read-out: 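Cells stained with dye and imaged after a scratch; covered wound area and nuclei counted, duplicates averaged, migration set against mock wells and turned into a robust z-score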
# Direction: migration robust z-score: higher = faster migration into the scratch; migration relative to mock: higher = more scratch area covered than mock; nuclei per well: higher = more cells in the well
# Active means: 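Migration changed when robust z exceeds 2 or falls below -2 and mean nuclei number is at least 3300; otherwise not called changed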
# Calls: active = migration changed; inactive = no migration change, or too few cells
# This is an unselected part of about 18,000 reagents tested. In the full data, about 1,030 (5.7%) are marked active. 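Inactive calls also include pools with fewer than 3300 nuclei, whose migration was not assessed.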 Raw values vary from plate to plate and are shown uncorrected. The numbers tell different reagents against one gene apart.
target gene,reagent,migration robust z-score,migration class with cell-count check,migration relative to mock,"nuclei per well, duplicate mean",outcome
GDPD2 (GeneID 54857),1,1.35,migration z between -2 and 2; enough cells,1.06,5703,inactive
PLEKHJ1 (GeneID 55111),1,-0.16,migration z between -2 and 2; enough cells,0.84,5514,inactive
NR1H3 (GeneID 10062),1,1.06,migration z between -2 and 2; enough cells,1.01,5364,inactive
CDC37P1 (GeneID 390688),1,2.12,migration z above 2; enough cells,1.43,6834,active
CCNY (GeneID 219771),1,-0.2,migration z between -2 and 2; enough cells,0.83,6725,inactive
CD5L (GeneID 922),1,0,migration z between -2 and 2; enough cells,0.8,5514,inactive
CST2 (GeneID 1470),1,-0.06,migration z between -2 and 2; enough cells,0.87,5410,inactive
ZNF462 (GeneID 58499),1,1.62,migration z between -2 and 2; enough cells,1.31,5626,inactive
ZNF329 (GeneID 79673),1,0,migration z between -2 and 2; enough cells,0.88,5458,inactive
BRPF3 (GeneID 27154),1,0.2,migration z between -2 and 2; enough cells,0.84,4806,inactive
KIF1B (GeneID 23095),1,-0.49,migration z between -2 and 2; enough cells,0.71,5170,inactive
UVSSA (GeneID 57654),1,0.06,migration z between -2 and 2; enough cells,0.9,4800,inactive
CLPB (GeneID 81570),1,-1.2,migration z between -2 and 2; enough cells,0.57,4293,inactive
PITPNB (GeneID 23760),1,0.16,migration z between -2 and 2; enough cells,0.92,5319,inactive
GLRX5 (GeneID 51218),1,1.25,migration z between -2 and 2; enough cells,1.21,5791,inactive
FAAP20 (GeneID 199990),1,-0.12,migration z between -2 and 2; enough cells,0.85,5772,inactive
KRABD3 (GeneID 84626),1,-0.12,migration z between -2 and 2; enough cells,0.86,6352,inactive
OTOL1 (GeneID 131149),1,-1.15,migration z between -2 and 2; enough cells,0.58,6246,inactive
PRPF4 (GeneID 9128),1,-0.9,migration z between -2 and 2; enough cells,0.66,4638,inactive
GNGT2 (GeneID 2793),1,-0.81,migration z between -2 and 2; enough cells,0.68,7320,inactive
FAM153A (GeneID 285596),1,0.65,migration z between -2 and 2; enough cells,1.05,7206,inactive
PDE1C (GeneID 5137),1,-0.34,migration z between -2 and 2; enough cells,0.74,6324,inactive
FGF16 (GeneID 8823),1,0.8,migration z between -2 and 2; enough cells,0.96,6405,inactive
ZCCHC7 (GeneID 84186),1,-1.55,migration z between -2 and 2; enough cells,0.48,4862,inactive
MRPL30 (GeneID 51263),1,-0.03,migration z between -2 and 2; enough cells,0.88,5098,inactive
HTRA2 (GeneID 27429),1,1.94,migration z between -2 and 2; enough cells,1.18,5830,inactive
CFL2 (GeneID 1073),1,-1.23,migration z between -2 and 2; enough cells,0.56,5020,inactive
MORF4L1 (GeneID 10933),1,1.44,migration z between -2 and 2; enough cells,1.27,4434,inactive
C12orf43 (GeneID 64897),1,-1.34,migration z between -2 and 2; enough cells,0.54,4986,inactive
RDH16 (GeneID 8608),1,-0.6,migration z between -2 and 2; enough cells,0.73,6780,inactive
DDB1 (GeneID 1642),1,-0.78,migration z between -2 and 2; enough cells,0.66,5392,inactive
PCDHA2 (GeneID 56146),1,0.18,migration z between -2 and 2; enough cells,0.93,5522,inactive
AP2A1 (GeneID 160),1,-0.62,migration z between -2 and 2; enough cells,0.72,6436,inactive
FGF1 (GeneID 2246),1,-1.06,migration z between -2 and 2; enough cells,0.6,4358,inactive
JAKMIP2 (GeneID 9832),1,-1.33,migration z between -2 and 2; enough cells,0.54,6088,inactive
CHAT (GeneID 1103),1,0.96,migration z between -2 and 2; enough cells,0.99,5282,inactive
NECAB1 (GeneID 64168),1,2.25,migration z above 2; enough cells,1.47,6512,active
SNX33 (GeneID 257364),1,-0.43,migration z between -2 and 2; enough cells,0.77,5518,inactive
PDE2A (GeneID 5138),1,0.3,migration z between -2 and 2; enough cells,0.96,6666,inactive
ZIK1 (GeneID 284307),1,-1.25,migration z between -2 and 2; enough cells,0.56,5626,inactive
TP53I13 (GeneID 90313),1,-0.38,migration z between -2 and 2; enough cells,0.78,5537,inactive
NBPF3 (GeneID 84224),1,-0.84,migration z between -2 and 2; enough cells,0.67,5622,inactive
HERC3 (GeneID 8916),1,-1.71,migration z between -2 and 2; enough cells,0.47,5866,inactive
NXPH3 (GeneID 11248),1,-1.73,migration z between -2 and 2; enough cells,0.44,5440,inactive
NOTUM (GeneID 147111),1,0.17,migration z between -2 and 2; enough cells,0.93,7092,inactive
TP53AIP1 (GeneID 63970),1,-1.36,migration z between -2 and 2; enough cells,0.53,4900,inactive
HYAL3 (GeneID 8372),1,-0.67,migration z between -2 and 2; enough cells,0.68,6278,inactive
SEPTIN2 (GeneID 4735),1,1.89,migration z between -2 and 2; enough cells,1.38,5406,inactive
SELENOW (GeneID 6415),1,-0.2,migration z between -2 and 2; enough cells,0.84,3900,inactive
ZBTB41 (GeneID 360023),1,0.74,migration z between -2 and 2; enough cells,1.07,6836,inactive
CCL18 (GeneID 6362),1,0.35,migration z between -2 and 2; enough cells,0.98,5796,inactive
RNF213 (GeneID 57674),1,0.8,migration z between -2 and 2; enough cells,0.96,6393,inactive
RNF213 (GeneID 57674),2,0.95,migration z between -2 and 2; enough cells,1.13,6840,inactive
CTH (GeneID 1491),1,-0.16,migration z between -2 and 2; enough cells,0.78,6501,inactive
TTC31 (GeneID 64427),1,-0.44,migration z between -2 and 2; enough cells,0.77,6216,inactive
LINC01465 (GeneID 283416),1,-3.38,under 3300 nuclei; migration not judged,0,2056,inactive
CCDC157 (GeneID 550631),1,0.67,migration z between -2 and 2; enough cells,1.06,5890,inactive

Entries listed so far whose target name starts with G or g:
target gene,reagent,migration robust z-score,migration class with cell-count check,migration relative to mock,"nuclei per well, duplicate mean",outcome
GDPD2 (GeneID 54857),1,1.35,migration z between -2 and 2; enough cells,1.06,5703,inactive
GLRX5 (GeneID 51218),1,1.25,migration z between -2 and 2; enough cells,1.21,5791,inactive
GNGT2 (GeneID 2793),1,-0.81,migration z between -2 and 2; enough cells,0.68,7320,inactive
